Measurements reported in article doi:10.1101/2021.06.17.448349.
No constants are given. Whether binding was seen depends on the method and setting. Binding seen in cells or lysates may run through a third protein. Here binding means that the protein was enriched with, or labelled near, the bait; the list need not be complete.

Sequences of proteins named here, by UniProt entry; tags and fusion partners are left off.
UniProt P68363: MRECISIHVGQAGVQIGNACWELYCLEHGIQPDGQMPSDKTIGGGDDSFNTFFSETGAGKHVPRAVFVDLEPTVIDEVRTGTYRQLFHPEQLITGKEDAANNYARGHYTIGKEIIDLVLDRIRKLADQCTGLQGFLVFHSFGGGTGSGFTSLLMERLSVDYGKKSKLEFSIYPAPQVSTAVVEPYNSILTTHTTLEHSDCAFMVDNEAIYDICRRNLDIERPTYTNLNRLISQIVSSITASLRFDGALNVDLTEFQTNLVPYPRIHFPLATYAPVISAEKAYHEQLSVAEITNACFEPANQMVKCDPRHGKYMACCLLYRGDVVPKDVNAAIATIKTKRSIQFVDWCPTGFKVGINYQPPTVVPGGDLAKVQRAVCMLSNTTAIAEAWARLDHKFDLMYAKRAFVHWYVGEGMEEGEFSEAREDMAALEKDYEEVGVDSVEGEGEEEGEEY
UniProt P11137: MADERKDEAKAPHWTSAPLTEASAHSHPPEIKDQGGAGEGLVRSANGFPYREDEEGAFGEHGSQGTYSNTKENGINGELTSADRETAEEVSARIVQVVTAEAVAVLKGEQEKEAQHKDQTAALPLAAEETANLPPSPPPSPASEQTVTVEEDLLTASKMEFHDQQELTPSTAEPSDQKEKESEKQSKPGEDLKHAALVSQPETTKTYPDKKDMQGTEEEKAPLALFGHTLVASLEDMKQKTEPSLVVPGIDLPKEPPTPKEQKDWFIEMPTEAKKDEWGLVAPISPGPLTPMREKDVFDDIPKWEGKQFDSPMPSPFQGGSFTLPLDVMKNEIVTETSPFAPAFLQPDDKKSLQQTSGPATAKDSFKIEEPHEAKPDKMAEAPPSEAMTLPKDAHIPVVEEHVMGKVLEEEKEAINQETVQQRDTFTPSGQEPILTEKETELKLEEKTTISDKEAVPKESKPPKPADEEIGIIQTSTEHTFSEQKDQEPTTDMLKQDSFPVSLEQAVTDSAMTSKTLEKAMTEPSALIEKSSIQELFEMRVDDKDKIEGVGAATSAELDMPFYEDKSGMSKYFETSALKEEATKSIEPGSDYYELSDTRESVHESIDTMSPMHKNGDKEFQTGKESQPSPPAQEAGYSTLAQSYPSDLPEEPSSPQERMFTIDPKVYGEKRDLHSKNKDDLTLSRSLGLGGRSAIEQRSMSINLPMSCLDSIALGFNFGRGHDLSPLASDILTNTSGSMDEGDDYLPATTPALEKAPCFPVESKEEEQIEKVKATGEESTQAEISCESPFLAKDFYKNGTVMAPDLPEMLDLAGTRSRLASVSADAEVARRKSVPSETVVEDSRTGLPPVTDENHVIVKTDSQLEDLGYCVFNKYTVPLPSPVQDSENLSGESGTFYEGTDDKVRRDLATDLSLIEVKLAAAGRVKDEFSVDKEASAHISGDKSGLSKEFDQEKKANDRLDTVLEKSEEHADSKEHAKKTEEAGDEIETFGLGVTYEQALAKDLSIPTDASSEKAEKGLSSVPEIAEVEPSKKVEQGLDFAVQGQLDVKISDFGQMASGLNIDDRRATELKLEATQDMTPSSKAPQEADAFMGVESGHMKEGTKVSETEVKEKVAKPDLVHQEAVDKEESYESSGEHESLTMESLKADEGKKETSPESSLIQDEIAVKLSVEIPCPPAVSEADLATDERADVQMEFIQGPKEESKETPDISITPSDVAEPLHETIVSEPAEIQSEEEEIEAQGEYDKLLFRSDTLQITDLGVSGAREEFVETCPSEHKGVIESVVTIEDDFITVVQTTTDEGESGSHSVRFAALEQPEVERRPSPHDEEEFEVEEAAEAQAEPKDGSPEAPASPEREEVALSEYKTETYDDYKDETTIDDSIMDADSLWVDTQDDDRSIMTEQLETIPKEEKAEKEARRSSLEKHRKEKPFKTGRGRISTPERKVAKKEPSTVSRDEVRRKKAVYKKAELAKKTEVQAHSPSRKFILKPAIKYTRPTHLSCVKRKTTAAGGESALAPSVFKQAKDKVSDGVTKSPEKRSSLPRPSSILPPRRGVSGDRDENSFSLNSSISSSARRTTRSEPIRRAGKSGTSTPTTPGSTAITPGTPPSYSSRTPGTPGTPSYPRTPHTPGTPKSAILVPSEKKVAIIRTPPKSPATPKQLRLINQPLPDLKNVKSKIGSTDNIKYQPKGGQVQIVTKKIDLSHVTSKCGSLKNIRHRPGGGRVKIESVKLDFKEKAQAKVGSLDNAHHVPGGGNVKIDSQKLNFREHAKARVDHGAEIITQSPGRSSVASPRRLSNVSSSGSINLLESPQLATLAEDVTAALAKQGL
UniProt P46821: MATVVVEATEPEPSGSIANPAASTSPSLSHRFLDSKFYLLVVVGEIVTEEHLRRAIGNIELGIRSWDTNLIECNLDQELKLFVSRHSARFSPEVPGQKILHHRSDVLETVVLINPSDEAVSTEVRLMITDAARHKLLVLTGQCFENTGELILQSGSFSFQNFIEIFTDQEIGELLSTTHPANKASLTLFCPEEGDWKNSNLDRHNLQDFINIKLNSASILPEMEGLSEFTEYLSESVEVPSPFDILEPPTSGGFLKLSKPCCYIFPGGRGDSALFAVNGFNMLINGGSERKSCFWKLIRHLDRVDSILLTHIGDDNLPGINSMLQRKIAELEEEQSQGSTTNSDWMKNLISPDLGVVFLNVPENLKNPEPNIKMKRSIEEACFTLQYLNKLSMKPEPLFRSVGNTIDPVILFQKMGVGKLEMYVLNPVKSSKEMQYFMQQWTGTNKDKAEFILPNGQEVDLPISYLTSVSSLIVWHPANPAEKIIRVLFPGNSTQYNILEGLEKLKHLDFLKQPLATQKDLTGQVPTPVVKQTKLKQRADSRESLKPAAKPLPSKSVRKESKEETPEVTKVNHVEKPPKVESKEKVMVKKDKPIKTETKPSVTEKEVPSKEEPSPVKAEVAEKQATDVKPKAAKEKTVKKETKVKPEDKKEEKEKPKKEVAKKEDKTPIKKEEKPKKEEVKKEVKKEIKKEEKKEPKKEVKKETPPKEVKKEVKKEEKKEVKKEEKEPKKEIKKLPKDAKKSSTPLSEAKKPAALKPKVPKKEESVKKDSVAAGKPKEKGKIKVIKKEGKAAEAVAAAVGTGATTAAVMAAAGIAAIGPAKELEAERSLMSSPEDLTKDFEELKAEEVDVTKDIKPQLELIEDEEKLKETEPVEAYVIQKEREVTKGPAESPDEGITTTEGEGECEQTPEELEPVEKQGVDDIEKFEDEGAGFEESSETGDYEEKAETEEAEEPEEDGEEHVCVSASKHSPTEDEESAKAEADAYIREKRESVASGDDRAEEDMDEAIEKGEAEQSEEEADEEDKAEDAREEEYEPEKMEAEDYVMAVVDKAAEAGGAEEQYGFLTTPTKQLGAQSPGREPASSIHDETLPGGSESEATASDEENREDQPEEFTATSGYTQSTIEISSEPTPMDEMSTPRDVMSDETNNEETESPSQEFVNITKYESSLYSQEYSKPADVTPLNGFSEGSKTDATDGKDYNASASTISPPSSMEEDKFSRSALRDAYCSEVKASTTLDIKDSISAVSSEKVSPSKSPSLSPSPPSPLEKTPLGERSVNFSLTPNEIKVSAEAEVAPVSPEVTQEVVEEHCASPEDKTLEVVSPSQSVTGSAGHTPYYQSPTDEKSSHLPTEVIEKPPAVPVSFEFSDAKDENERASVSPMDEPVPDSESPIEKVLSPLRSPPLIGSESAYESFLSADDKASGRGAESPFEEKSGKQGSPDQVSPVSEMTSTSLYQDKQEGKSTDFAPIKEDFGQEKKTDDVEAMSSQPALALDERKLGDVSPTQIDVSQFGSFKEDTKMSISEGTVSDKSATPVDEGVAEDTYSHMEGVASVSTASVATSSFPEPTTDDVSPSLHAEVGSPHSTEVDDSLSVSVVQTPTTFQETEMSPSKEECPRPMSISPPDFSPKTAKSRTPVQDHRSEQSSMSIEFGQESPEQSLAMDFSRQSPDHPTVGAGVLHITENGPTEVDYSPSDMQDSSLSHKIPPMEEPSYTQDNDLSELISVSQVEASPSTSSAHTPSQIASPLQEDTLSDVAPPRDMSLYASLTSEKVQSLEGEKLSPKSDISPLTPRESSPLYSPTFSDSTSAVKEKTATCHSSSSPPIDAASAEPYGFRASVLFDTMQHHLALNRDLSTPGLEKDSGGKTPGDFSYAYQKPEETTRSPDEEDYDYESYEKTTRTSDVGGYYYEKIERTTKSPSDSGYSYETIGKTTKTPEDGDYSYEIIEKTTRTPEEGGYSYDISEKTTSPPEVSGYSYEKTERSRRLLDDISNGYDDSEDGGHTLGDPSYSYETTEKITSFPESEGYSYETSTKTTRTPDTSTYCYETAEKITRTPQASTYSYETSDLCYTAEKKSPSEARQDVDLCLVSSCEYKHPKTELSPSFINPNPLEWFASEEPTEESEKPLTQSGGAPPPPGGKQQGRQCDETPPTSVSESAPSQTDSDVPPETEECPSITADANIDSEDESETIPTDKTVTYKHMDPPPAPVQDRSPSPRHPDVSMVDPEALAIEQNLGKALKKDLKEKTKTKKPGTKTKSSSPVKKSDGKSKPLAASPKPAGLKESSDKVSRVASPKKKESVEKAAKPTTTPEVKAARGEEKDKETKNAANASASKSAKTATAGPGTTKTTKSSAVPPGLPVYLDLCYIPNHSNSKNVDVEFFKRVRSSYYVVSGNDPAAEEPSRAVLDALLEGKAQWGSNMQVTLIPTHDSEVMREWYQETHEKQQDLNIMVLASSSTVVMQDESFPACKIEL

Molecular target: APEX2-tagged Tubulin α 1b (UniProt P68363)
Assay: proximity labelling

binding	Substance
binds	MAP2 (from UniProt P11137 1-1827)
binds	MAP1B (from UniProt P46821)
